According to article PMC9403187:

Key:
Assay in all cases: co-IP
[1] = target: MAYV GFP-nsP3 ΔFGDF (Mayaro virus)
[2] = target: MAYV GFP-nsP3 ΔFGAP (Mayaro virus)
[3] = target: MAYV 2Δ GFP-nsP3 (Mayaro virus)

B1: Ras-GTPase-activating SH3 domain-binding protein 2 (G3BP2) (protein, UniProt Q9UN86 1-482)
chain: MVMEKPSPLLVGREFVRQYYTLLNKAPEYLHRFYGRNSSYVHGGVDASGKPQEAVYGQNDIHHKVLSLNFSECHTKIRHVDAHATLSDGVVVQVMGLLSNSGQPERKFMQTFVLAPEGSVPNKFYVHNDMFRYEDEVFGDSEPELDEESEDEVEEEQEERQPSPEPVQENANSGYYEAHPVTNGIEEPLEESSHEPEPEPESETKTEELKPQVEEKNLEELEEKSTTPPPAEPVSLPQEPPKAFSWASVTSKNLPPSGTVSSSGIPPHVKAPVSQPRVEAKPEVQSQPPRVREQRPRERPGFPPRGPRPGRGDMEQNDSDNRRIIRYPDSHQLFVGNLPHDIDENELKEFFMSFGNVVELRINTKGVGGKLPNFGFVVFDDSEPVQRILIAKPIMFRGEVRLNVEEKKTRAARERETRGGGDDRRDIRRNDRGPGGPRGIVGGGMMRDRDGRGPPPRGGMAQKLGSGRGTGQMEGRFTGQRR
binding [1]: binds
binding [2]: binds
binding [3]: no binding

No constants are given. Whether binding was seen depends on the method and setting. In cells and extracts the contact can be indirect. For part of these data: Binding calls can cover weak binding; strength is not graded here.
